Test results: patent US11219607B2, “Methods for suppressing cancer-related cachexia” (Ohio State Innovation Foundation, priority 2013, dated 2022)

Test system: C-26 tumor-bearing mice
Assay: C-26 colon adenocarcinoma model of cancer cachexia (body, muscle and tissue weights, tumor growth, food intake)
Type: in vivo, CD2F1 mice
Description: In one aspect, tumors were established by subcutaneous injection of C-26 cells (0.5×10^6 cells in 0.1 ml) into the right flank of male CD2F1 mice (approximately 6 weeks of age; Harlan Laboratories, Indianapolis, Ind.)(11). Tumor-bearing mice, as well as tumor-free mice serving as non-cachectic controls, were randomized into groups that were treated with either AR-42 (50 mg/kg, p.o. by gavage, every other day; Arno Therapeutics, Inc., Flemington, N.J.) or vehicle (0.5% methylcellulose (w/v) and 0.1% Tween-80 (v/v) in sterile water) starting 6 days after cell injection. […]
In another aspect, subcutaneous tumors were established in male C57BL/6 mice (approximately 6 weeks of age; Harlan) by injection of 0.5×10^6 LLC cells into the right flank. […] In both models, body weights and food consumption were monitored daily and tumor size was measured no less than every two days. Mice were fasted for 2 hours prior to sacrifice, at which time, hind limb muscles, heart, spleen, epididymal fat, and blood were collected and the weights of the solid tissues were measured. […]
CD2F1 and C57BL/6 mice were group-housed under conditions of constant photoperiod (12-hour light/12-hour dark), temperature and humidity with ad libitum access to water and standard diet. […] Tumor volumes were calculated from caliper measurements using a standard formula (length×width^2×π/6).

Compound: CC(C)[C@H](C(=O)Nc1ccc(C(=O)NO)cc1)c1ccccc1 [AR-42, (S)—N-hydroxy-4-(3-methyl-2-phenylbutanamido)benzamide]
- average daily food consumption versus vehicle-treated group (C-26 tumor-bearing mice, 15-day study): comparable
- reduction of adipose tissue mass in tumor-free mice (tumor-free mice, 50 mg/kg p.o. every other day): approximately 50%
